The results in this text go back to paper PMC5291076, “Analyzing native membrane protein assembly in nanodiscs by combined non-covalent mass spectrometry and synthetic biology” (eLife, 2017).

Experiment [1] addresses Phospho-N-acetylmuramyl-pentapeptide-transferase E.coli (E. coli) (UniProt P0A6W3). Description: condition: only in nanodiscs of the zwitterionic lipid DMPC, without anionic lipid; native MS; LILBID-MS of the membrane protein in MSP1E3D1 (DMPC) nanodiscs; 50 mM ammonium acetate pH 6.8; both purified.
The target of experiment [2] is Lipoprotein signal peptidase (UniProt P00804). In words: native MS; LILBID-MS of the membrane protein in MSP1E3D1 (DMPG) nanodiscs; 50 mM ammonium acetate pH 6.8; anionic mode; laser pulse energy between 9.5 and 23 mJ; unlabeled and (KcsA) 15N, 2H labeled samples; both purified.

No constants are given. Whether binding was seen depends on the method and setting.

B1: Phospho-N-acetylmuramyl-pentapeptide-transferase E.coli (enzyme, E. coli, UniProt P0A6W3 1-360, looked up)
chain: MLVWLAEHLVKYYSGFNVFSYLTFRAIVSLLTALFISLWMGPRMIAHLQKLSFGQVVRNDGPESHFSKRGTPTMGGIMILTAIVISVLLWAYPSNPYVWCVLVVLVGYGVIGFVDDYRKVVRKDTKGLIARWKYFWMSVIALGVAFALYLAGKDTPATQLVVPFFKDVMPQLGLFYILLAYFVIVGTGNAVNLTDGLDGLAIMPTVFVAGGFALVAWATGNMNFASYLHIPYLRHAGELVIVCTAIVGAGLGFLWFNTYPAQVFMGDVGSLALGGALGIIAVLLRQEFLLVIMGGVFVVETLSVILQVGSFKLRGQRIFRMAPIHHHYELKGWPEPRVIVRFWIISLMLVLIGLATLKVR
notes: MraY translocase of E. coli; theoretical mass of the construct 42.22 kDa; Dimer in DMPG and in DMPC/DMPG nanodiscs, monomer in DMPC nanodiscs; also called Ec-MraY; E. coli MraY; source: cell-free (CECF, E. coli A19 lysate), co-translationally inserted into nanodiscs, purified (Streptactin)
Turning to B1, in experiment [1], the binding result is recorded as “no binding”.

B2: Lipoprotein signal peptidase (enzyme, UniProt P00804 1-164)
chain: MSQSICSTGLRWLWLVVVVLIIDLGSKYLILQNFALGDTVPLFPSLNLHYARNYGAAFSFLADSGGWQRWFFAGIAIGISVILAVMMYRSKATQKLNNIAYALIIGGALGNLFDRLWHGFVVDMIDFYVGDWHFATFNLADTAICVGAALIVLEGFLPSRAKKQ
On to B2, for which the binding entry in experiment [2] is “no binding”.
